This passage reports binding results from paper PMC4978524.

Protein sequences, listed by entry. Tags and fused reporters are not part of them. Lines headed by an entry give the natural chain unless they say otherwise; changes in a name come on top.
UniProt Q24311: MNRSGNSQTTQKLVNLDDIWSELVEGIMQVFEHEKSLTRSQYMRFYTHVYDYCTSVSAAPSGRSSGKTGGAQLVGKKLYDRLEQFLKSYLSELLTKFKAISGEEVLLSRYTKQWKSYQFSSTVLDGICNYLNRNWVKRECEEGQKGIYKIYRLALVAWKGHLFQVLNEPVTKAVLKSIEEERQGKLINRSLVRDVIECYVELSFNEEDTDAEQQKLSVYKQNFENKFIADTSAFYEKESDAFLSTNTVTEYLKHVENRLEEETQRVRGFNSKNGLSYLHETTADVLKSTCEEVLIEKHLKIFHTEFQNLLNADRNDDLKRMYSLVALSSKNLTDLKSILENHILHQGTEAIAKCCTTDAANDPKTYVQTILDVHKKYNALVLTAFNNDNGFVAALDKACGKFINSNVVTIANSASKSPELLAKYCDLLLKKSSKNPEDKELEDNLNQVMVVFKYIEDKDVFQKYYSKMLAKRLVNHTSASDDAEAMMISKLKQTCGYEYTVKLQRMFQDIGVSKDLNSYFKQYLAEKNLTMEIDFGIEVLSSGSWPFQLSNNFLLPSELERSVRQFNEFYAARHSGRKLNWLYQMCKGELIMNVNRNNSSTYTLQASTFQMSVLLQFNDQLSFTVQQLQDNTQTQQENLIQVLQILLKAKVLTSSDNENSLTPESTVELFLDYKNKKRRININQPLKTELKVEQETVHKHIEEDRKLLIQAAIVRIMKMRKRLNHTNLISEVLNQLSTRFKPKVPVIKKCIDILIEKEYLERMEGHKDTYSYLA
UniProt Q9V3Z6: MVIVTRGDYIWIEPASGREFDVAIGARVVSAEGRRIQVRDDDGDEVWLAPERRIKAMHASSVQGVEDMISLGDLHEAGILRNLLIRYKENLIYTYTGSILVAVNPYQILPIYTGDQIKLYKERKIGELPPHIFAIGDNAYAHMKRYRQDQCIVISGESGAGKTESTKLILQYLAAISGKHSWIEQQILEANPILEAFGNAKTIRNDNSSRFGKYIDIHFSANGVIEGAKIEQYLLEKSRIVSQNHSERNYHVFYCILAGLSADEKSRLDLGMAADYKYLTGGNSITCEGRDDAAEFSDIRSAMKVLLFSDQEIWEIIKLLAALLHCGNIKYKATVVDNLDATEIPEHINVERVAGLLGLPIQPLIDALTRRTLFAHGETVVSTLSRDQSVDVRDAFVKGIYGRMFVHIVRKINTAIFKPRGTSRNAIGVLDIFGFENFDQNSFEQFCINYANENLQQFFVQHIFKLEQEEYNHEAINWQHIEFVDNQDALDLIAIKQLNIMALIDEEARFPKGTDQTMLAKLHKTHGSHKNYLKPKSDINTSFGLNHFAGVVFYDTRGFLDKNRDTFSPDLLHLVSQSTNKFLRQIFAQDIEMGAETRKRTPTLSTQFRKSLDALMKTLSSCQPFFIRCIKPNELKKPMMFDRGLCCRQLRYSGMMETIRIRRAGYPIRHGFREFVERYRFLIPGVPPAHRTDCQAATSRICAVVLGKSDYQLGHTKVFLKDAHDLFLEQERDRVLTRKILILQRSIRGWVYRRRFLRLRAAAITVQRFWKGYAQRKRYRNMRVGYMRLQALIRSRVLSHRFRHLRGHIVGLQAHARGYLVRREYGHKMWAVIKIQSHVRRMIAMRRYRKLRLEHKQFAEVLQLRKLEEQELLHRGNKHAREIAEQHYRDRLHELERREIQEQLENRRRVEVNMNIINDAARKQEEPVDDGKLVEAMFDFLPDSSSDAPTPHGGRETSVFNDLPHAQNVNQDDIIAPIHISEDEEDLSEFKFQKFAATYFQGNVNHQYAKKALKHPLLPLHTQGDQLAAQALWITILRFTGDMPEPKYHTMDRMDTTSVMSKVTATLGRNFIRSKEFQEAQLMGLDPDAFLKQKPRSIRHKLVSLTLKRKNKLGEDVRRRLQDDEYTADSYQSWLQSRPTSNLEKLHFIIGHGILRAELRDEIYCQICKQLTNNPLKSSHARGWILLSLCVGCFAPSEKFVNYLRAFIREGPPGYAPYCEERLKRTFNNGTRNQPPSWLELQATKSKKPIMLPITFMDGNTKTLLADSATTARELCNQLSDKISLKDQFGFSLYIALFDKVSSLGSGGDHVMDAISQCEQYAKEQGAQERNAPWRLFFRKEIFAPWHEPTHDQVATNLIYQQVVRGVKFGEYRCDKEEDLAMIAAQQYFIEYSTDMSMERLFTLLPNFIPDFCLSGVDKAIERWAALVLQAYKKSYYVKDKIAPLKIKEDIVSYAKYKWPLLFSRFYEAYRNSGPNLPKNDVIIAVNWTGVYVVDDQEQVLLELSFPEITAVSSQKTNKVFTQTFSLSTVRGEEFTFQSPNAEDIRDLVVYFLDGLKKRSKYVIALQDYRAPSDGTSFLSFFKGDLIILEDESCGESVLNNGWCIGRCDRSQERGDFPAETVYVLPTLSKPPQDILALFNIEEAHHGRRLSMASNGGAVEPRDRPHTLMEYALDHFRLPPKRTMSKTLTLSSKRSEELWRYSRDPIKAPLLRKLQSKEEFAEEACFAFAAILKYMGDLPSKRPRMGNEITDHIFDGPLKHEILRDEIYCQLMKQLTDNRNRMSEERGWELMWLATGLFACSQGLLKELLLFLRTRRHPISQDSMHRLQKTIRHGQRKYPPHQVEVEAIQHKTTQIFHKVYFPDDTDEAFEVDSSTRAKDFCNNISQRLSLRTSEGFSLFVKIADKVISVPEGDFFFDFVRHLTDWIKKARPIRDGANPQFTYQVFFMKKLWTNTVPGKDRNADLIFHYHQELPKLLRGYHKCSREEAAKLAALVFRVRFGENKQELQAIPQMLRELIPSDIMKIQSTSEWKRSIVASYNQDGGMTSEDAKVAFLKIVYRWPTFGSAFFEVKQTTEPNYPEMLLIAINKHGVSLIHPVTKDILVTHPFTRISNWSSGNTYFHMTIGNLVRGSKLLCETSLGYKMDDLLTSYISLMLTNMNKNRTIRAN
UniProt Q7JQL2: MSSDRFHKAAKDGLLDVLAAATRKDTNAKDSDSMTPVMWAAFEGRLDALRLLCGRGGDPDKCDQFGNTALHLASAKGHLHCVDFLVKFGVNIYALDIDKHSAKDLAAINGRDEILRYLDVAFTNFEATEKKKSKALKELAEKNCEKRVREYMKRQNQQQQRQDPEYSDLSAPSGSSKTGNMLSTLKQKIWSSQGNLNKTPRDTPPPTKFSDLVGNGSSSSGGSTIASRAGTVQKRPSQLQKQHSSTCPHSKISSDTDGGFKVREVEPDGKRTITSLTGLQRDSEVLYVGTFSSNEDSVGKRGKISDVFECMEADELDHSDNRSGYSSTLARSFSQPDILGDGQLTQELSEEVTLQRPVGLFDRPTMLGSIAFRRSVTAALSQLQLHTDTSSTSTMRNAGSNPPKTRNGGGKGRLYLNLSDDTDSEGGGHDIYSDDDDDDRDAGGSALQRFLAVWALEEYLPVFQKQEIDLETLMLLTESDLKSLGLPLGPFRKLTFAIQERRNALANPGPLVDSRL

No constants are given. Whether binding was seen depends on the method and setting. In cells and extracts the contact can be indirect. A result given as binding can be weak or reduced; the word gives no strength.

Assay [1] has as its target Cul1-GFP (Drosophila Cullin1, in S2 cells) (Drosophila) (UniProt Q24311). Description: co-IP; S2 cells transfected with GFP-tagged and V5-tagged constructs, lysed 48 hr after transfection (Tris-HCl 25 mM pH 7.5, NaCl 150 mM, NP-40 1%), precipitated with GFP nanobody conjugated beads overnight at 4°C, western blots.
The target of assay [2] is MyoVIIa-GFP (Drosophila Myosin VIIa, in S2 cells) (Drosophila) (UniProt Q9V3Z6). Described as above.

For “Sans-V5 (Drosophila homologue of the Usher syndrome protein Sans) (from UniProt Q7JQL2)”, the binding result in assay [1] and in assay [2] was “binds” each time.
